## Primary screen of a compound library

The chains behind the UniProt entries cited, without tags or fusion partners.
UniProt I6X8D2, whole entry: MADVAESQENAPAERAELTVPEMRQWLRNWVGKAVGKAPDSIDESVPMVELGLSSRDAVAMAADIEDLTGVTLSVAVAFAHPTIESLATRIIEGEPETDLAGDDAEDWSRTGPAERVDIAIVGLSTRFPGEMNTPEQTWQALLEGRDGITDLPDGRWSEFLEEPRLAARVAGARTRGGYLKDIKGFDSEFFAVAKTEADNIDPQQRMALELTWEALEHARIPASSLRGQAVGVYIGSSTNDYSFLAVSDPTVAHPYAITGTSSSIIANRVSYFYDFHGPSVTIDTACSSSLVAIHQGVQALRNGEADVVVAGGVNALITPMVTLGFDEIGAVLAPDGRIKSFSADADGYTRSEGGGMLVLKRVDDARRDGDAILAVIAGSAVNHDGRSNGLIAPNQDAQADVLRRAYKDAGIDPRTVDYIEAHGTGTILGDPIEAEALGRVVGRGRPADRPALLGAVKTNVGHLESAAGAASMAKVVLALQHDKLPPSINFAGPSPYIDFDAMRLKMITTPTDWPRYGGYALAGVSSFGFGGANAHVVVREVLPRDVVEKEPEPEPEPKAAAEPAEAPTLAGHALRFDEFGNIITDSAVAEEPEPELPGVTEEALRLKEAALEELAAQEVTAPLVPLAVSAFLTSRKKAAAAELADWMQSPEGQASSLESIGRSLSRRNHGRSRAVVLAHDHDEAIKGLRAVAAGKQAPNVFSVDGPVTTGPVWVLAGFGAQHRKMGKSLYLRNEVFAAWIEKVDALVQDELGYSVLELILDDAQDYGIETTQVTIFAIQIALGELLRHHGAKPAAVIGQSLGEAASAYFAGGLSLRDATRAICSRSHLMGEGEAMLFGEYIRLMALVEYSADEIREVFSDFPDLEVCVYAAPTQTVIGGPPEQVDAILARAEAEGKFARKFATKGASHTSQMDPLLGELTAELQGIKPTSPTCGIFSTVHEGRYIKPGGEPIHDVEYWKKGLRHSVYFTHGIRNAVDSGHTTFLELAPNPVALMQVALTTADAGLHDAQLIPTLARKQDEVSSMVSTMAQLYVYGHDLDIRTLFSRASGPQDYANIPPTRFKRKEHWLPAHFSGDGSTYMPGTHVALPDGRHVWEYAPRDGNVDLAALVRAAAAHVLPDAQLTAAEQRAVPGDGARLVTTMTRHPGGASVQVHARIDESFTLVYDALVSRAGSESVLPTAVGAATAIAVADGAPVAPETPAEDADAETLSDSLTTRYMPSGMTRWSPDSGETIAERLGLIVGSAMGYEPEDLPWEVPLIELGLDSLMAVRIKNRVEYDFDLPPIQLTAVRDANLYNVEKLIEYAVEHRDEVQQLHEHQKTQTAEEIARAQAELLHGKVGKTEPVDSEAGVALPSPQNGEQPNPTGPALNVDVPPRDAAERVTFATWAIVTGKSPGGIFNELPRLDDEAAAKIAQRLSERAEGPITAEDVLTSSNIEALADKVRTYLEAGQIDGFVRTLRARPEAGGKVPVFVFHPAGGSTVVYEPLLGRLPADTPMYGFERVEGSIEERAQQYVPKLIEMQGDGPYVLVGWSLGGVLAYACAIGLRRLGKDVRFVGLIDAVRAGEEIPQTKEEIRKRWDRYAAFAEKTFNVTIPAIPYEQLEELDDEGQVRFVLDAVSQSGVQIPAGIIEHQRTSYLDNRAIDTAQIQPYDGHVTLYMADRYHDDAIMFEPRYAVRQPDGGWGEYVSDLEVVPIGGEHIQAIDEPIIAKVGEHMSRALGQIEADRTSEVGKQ
UniProt P9WNZ1, whole entry: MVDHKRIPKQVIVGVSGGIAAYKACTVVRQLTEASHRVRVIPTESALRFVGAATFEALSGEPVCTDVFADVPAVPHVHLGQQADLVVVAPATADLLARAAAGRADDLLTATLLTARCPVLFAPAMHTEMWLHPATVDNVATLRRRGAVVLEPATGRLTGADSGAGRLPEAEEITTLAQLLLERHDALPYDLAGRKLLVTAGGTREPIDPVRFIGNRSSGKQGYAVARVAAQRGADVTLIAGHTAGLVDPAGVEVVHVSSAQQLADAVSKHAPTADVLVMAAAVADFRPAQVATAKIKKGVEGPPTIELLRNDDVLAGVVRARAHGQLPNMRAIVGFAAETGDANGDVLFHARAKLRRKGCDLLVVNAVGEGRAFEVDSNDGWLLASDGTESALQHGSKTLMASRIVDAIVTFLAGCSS
UniProt P9WFT3, whole entry: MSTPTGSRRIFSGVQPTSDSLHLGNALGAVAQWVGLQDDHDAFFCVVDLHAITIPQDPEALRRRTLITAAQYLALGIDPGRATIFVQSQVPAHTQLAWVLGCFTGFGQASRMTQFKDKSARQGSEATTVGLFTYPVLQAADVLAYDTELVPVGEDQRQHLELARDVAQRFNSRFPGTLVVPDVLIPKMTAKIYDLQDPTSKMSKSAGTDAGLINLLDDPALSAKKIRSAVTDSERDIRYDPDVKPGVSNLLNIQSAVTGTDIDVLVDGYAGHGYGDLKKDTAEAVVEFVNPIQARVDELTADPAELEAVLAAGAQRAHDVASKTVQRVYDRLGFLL

The filed quantity is “Percent Effect” (%). How 0% and 100% were set is not recorded. Most values in the screen are low, and negative values occur. The compounds are a random part of those screened. Two or more numbers in one place are separate tests of the same structure; such repeats can differ widely. A dash means the value is not listed here; it may have been measured.

Pks13 thioesterase: 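Polyketide synthase Pks13, Mycobacterium tuberculosis (UniProt I6X8D2). Enzyme assay of the thioesterase domain of polyketide synthase 13; the read-out is not stated. Concentration: 30 µM. The record gives no direction; the compounds picked for IC50 retests had high values, so higher reads as stronger inhibition. Size under these conditions: about 67,000 compounds, about 300 of them at 50% or above in at least one test.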
CoaBC: 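Coenzyme A biosynthesis protein CoaBC, Mycobacterium tuberculosis (UniProt P9WNZ1). Enzyme assay of CoaBC with a phosphate dye (Biomol Green) read at 650 nm. Compounds at 30 µM. Direction is inferred from only a few compounds that gave an IC50; most scored high, so higher reads as stronger inhibition. Most strong results did not repeat in a second test. About 67,000 compounds were tested under these conditions; 0.06% (about 40) showed 50% or more at least once.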
Leishmania in macrophages: 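Cell assay of Leishmania donovani living inside macrophages; the read-out is not stated. Compounds at 30 µM. The record gives no direction; compounds that gave an IC50 in retests scored well above the rest, so higher reads as stronger inhibition. About 69,000 compounds were tested under these conditions; 1.5% (about 1,000) showed 50% or more at least once.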
MtTrpRS: 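Enzyme assay of tryptophanyl-tRNA synthetase; the read-out is not stated. Target: Tryptophan-tRNA ligase, Mycobacterium tuberculosis (UniProt P9WFT3). Concentration: 10 µM. Direction is not recorded; retested compounds ran higher, which suggests that high means inhibition. About 65,000 compounds were tested under these conditions; 0.098% (about 64) showed 50% or more at least once.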

| # | compound | Pks13 thioesterase | CoaBC | Leishmania in macrophages | MtTrpRS |
|---|---|---|---|---|---|
| 1 | `CS(=O)(=O)NCCC1CCCCN1C(=O)NCCc1ccccn1` (stereo not shown) | -13.54 | 5.281 | 4.398 | 2.304 |
| 2 | `[H][C@]12CC[C@@]3(N=C(C)N(C)C3=O)[C@@]1([H])CN(S(=O)(=O)CC(C)C)C2` | - | - | 12.06 | - |
| 3 | `CCN(CC)C(=O)Cn1c(=O)n(Cc2ccco2)c2ncccc21` | -19.01 | 3.398 | 1.503 and 15.05 | - |
| 4 | `COC[C@@]12CCO[C@@H]1CCN(Cc1ccc(C)s1)C2` | - | 0 | - | 9.567 |
| 5 | `N#Cc1cccnc1N1CCC(C2CCCCCN2C(=O)C2CC2)CC1` (stereo not shown) | -19.07 | 3.676 | 7.327 | -5.336 |
| 6 | `NC(=O)N1CCC2(CCN(Cc3ccccn3)C2=O)C1.O=C(O)C(F)(F)F` (stereo not shown) | - | - | 39.1 | - |
| 7 | `O=C(c1ccc(Br)o1)N1CCCCC1Cn1cccn1` (stereo not shown) | -11.86 | 8.432 | 25.26 | 0.8746 |
| 8 | `[H][C@@]12CCN(C3CCOCC3)C[C@@]1([H])O[C@H](C(=O)N1CCCC1)C2` | - | - | -1.94 | - |
| 9 | `C=C(C)COCCNC(=O)N1CCc2c(cccc2OC)C1` | -27.59 | 2.174 | 24.26 | 7.225 |
| 10 | `CO[C@H]1CCN(c2nnc(C)s2)C[C@@H]1Cc1ccccc1.O=C(O)C(F)(F)F` | - | - | 9.208 | - |
| 11 | `Cc1cccc(Cl)c1NC(=O)Cn1cc(C(=O)O)ccc1=O` | -19.78 | 7.066 | 4.355 | 4.329 |
| 12 | `Cc1nc(NC(=O)OC(C)(C)C)sc1C(=O)O` | - | 6.855 | -8.718 | 2.542 |
| 13 | `Cc1ccc2[nH]c(=O)cc(C(=O)NCCCn3nccc3C3CC3)c2c1` | -7.911 | -2.991 | -7.976 | -5.924 |
| 14 | `CCS(=O)(=O)N[C@H]1CN(CC(C)(C)N2CCOCC2)C[C@@H]1C1CC1` | -7.546 | -3.215 | 4.149 | -6.692 |
| 15 | `OCC1(CC2CCCCO2)CCN(c2cnc3ccccc3n2)CC1` (stereo not shown) | 1.642 | 2.36 | 45.75 | -9.986 |
| 16 | `CCn1cc(CN2CCN(C(=O)N3CCOCC3)CC2)cn1` | 2.143 | 0.6098 | -43.8 | 0 |
| 17 | `O=C(N1CCCO1)[C@@]12CCO[C@@H]1CCN(C1CCCCC1)C2` | -2.232 | 3.68 | - | 0.9444 |
| 18 | `O=C(Cc1ccccc1)N1CCC2(CCN2Cc2ccc(F)cc2)C1` (stereo not shown) | -26.69 | 3.218 | - | 2.035 |
| 19 | `CN1C(=O)C(c2ccccc2)CC12CCN(CCOCCO)CC2` (stereo not shown) | -11.62 | -5.357 | 6.91 | 3.73 |
| 20 | `COc1ccc(OC(F)F)c(NCC(=O)NCC(=O)N2CCCC2)c1` | -13.5 | 2.3 | 7.546 | 2.333 |
| 21 | `CC(C)N1CCCC(C(=O)NCCCc2cnn(C)c2)C1` (stereo not shown) | -14.79 | -3.186 | -16.84 | -4.815 |
| 22 | `O=C(O)C(F)(F)F.[H][C@@]12COC[C@]1(CNC(=O)c1ccco1)CN(CC1CCOCC1)C2` | - | - | 29.17 | - |
| 23 | `CN1CCN(CC2CN(CC3CC3)Cc3nccn3C2)CC1.O=C(O)C(F)(F)F.O=C(O)C(F)(F)F.O=C(O)C(F)(F)F` (stereo not shown) | - | - | 13.59 | - |
| 24 | `O=C(NC1CCCC1)c1cc(Cn2cnc3ccccc32)on1` | -1.602 | 2.086 | 18.68 | 1.398 |
| 25 | `C[C@@H]1CN(C(=O)NC2CC2)C[C@]12CCN(c1ccsc1)C2=O` | -20.56 | -3.886 | 6.228 | -1.586 |
| 26 | `CCS(=O)(=O)N1C[C@@H]2COC[C@@H](Cc3nc(C)no3)[C@@H]2C1` | 7.152 | 5 | - | -1.058 |
| 27 | `[H][C@@]12CCC(=O)N(CCOC)[C@@]1([H])CCN2S(=O)(=O)C1CC1` | - | - | 34.37 | - |
| 28 | `O=C(O)C(F)(F)F.c1ccc(N2CCOC3(CCCN(c4ncccn4)C3)C2)nc1` (stereo not shown) | - | - | 12.59 | - |
| 29 | `O=C(c1ccnnc1)N1CC[C@H](OCC2CC2)[C@@H]1Cc1ccncc1` | -5.838 | -20 | 23.1 | -2.509 |
| 30 | `O=C(CCc1ccccc1)NCC1CCN(Cc2cccs2)CC1` | -5.665 | 0.6017 | 47.7 | -2.935 |
| 31 | `CC(C)c1nc(-c2cc(C(=O)N3CCN(C)CC3)c3ccccn23)cs1.O=C(O)C(F)(F)F` | - | - | 16.88 | - |
| 32 | `Cn1cnnc1CCC(=O)N1CCCC(OCc2cccnc2)C1` (stereo not shown) | -5.588 | 3.807 | 12.47 | 2.776 |
| 33 | `Cc1noc(-c2ccnc(N3CCC(N4CCCC4)CC3)c2)n1` | -16.25 | -14.29 | -1.839 | 1.009 |
| 34 | `CC(CN1CCOCC1)NC(=O)N1CCN(S(C)(=O)=O)CC1` (stereo not shown) | -17.73 | -11.32 | -38.67 | -2.067 |
| 35 | `CC(C)Oc1ncc(C(=O)N2CCCC(C(=O)O)C2)cc1Cl` (stereo not shown) | -3.973 | 2.927 | 0.4071 | -2.709 |
| 36 | `O=C(O)C(F)(F)F.O=C(O)C(F)(F)F.[H][C@@]12CCN(Cc3cccs3)C[C@]1([H])[C@@H](CN(C)Cc1ccco1)OC2` | - | - | -18.3 | - |
| 37 | `CC(C)c1nnsc1CNC(=O)C1CCN(C(=O)C2CCCC2)CC1` | -19.22 | 9.709 | -43.82 | -3.451 |
| 38 | `O=C(CN1CC(c2nc(C3CC3)no2)C1)N1CCOCC1.O=C(O)C(=O)O` | - | - | 12.8 | - |
| 39 | `O=C(C1CC1)N1CCN2C[C@@H](CO)[C@H](c3ccccc3)[C@H]2C1` | 2.091 | 3.874 | - | - |
| 40 | `O=C(c1cn2cc(Cl)cnc2n1)N1CCOCC(O)(CN2CCCC2)C1` (stereo not shown) | -4.492 | 2.41 | 15.33 | 1.911 |
| 41 | `CC(C)CC(=O)N1CC(=O)N(CCc2ccccc2)CC(O)C1` (stereo not shown) | -14.08 | 0.9685 | -22.85 | - |
| 42 | `Cc1sc(Br)cc1S(=O)(=O)NCCCN.Cl` | - | - | 32.58 | - |

Once more, the final 5:

compound	Pks13 thioesterase	CoaBC	Leishmania in macrophages	MtTrpRS
O=C(CN1CC(c2nc(C3CC3)no2)C1)N1CCOCC1.O=C(O)C(=O)O	-	-	12.8	-
O=C(C1CC1)N1CCN2C[C@@H](CO)[C@H](c3ccccc3)[C@H]2C1	2.091	3.874	-	-
O=C(c1cn2cc(Cl)cnc2n1)N1CCOCC(O)(CN2CCCC2)C1 (stereo not shown)	-4.492	2.41	15.33	1.911
CC(C)CC(=O)N1CC(=O)N(CCc2ccccc2)CC(O)C1 (stereo not shown)	-14.08	0.9685	-22.85	-
Cc1sc(Br)cc1S(=O)(=O)NCCCN.Cl	-	-	32.58	-

The values are deposited in ChEMBL (CHEMBL3988442, “University of Dundee, Small-Polar-MMV Screening Library” (2021)).